Source: PubChem BioAssay AID2417 (National Center for Advancing Translational Sciences (NCATS), 2010)
The campaign covered roughly 140,000 compounds. About 4,300 (3.1%) were called active. The shares of active, inactive and inconclusive entries below differ from those in the screen.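 How the source made its calls: active means readout at or below -70, meaning at least 70% loss of cells showing the perinucleolar compartment, a nuclear body marking cancer cells; inconclusive means readout between -30 and a set limit; inactive means the rest.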

Test: High Content Assay for Compounds that inhibit the Assembly of the Perinucleolar Compartment;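 further: plate controls were DMSO wells for no effect and camptothecin positive control wells for full effect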
Conditions: PC3M PTB-GFP, PNC prevalence imaging, 16 h; at 10 µM; stronger effect = lower value
In short: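 Compounds are pinned in duplicate onto adhered PC3M cells stably expressing GFP-tagged PTB and incubated 16 h at 37 C. Cells are then fixed, nuclei stained with Hoechst, and PNC-positive cells counted.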

Row | Compound | activity change (PNC), negative = inhibition
1 | CCC1(c2cccc(Cl)c2)NC(=O)N(Cc2cc(C(=O)OC)c(C)o2)C1=O (stereo not drawn) | inconclusive: -41.7%
2 | O=C1C2C(C(=O)N1/N=C/c1ccc(N3CCCCC3)o1)C1C=CC2C12CC2 (stereo not drawn) | inactive: -24.1%
3 | CS(=O)(=O)N1CCCC(C(=O)NCCCN2CCc3ccccc3C2)C1 (stereo not drawn) | inconclusive: -77.5%
4 | Cc1ccc(C(=O)c2cc([N+](=O)[O-])ccc2N2CCCCC2)c(C)c1 | inconclusive: -73.8%
5 | CCc1ccccc1-n1c(SCC(=O)NC)nnc1-c1cccnc1 | active: -122%
6 | O=C(Nc1ccccc1)c1ccc2c(c1)OCCO2 | inactive: -7.7%
7 | CC(C)C(=O)NC(=S)Nc1ccc(S(=O)(=O)N(C)Cc2ccccc2)cc1 | inconclusive: -59.9%
8 | Cc1cc(C)cc(NC(=O)Cn2cc3c(n2)CCCCC3)c1 | inactive: -17.2%
9 | COc1cc(NC(=O)COc2ccc(-n3cnnn3)cc2)c(OC)cc1Cl | inconclusive: -55.3%
10 | CCc1ccc(NC2=CC(=O)CC(c3ccco3)C2)cc1 (stereo not drawn) | inconclusive: -37%
11 | COc1cccc(OC)c1C(=O)Nc1ccccc1N1CCCC1 | inconclusive: -35%
12 | O=C1c2ccccc2C(Nc2ccc3c(c2)OCCO3)N1c1ccccn1 (stereo not drawn) | inconclusive: -42.1%
13 | CC(=O)C(C(C)=O)C(NC(=O)c1cccnc1)(C(F)(F)F)C(F)(F)F | inconclusive: -40.1%
14 | CN(C)c1ccc(/C=N\S(=O)(=O)c2ccccc2)cc1 | inconclusive: -70.3%
15 | Cc1nc(N2CCN(C(=O)c3ccc(Cl)cc3)CC2)c(C#N)c2c1COC(C)(C)C2 | inconclusive: -32.9%
16 | COc1ccc(C(=O)c2c[nH]c(C(=O)NCc3cccs3)c2)cc1 | inconclusive: -48.1%
17 | CCC(=O)N1CCN(C(C)=O)C1c1ccccc1 (stereo not drawn) | inconclusive: -50.2%
18 | Cc1oc2nc(SCC(=O)Nc3ccc(S(N)(=O)=O)cc3)nc(NC(=O)c3ccccc3)c2c1C | inconclusive: -50.5%
19 | CCN1CCN(S(=O)(=O)Cc2ccccc2)CC1 | inactive: 11.5%
20 | CCN1/C(=C2\C(=O)N(C)C(=S)N2C)C=Cc2cc(C)ccc21 | inactive: 46.8%
21 | CCOC(=O)c1nnn(-c2nc(OC)nc(N(C)C)n2)c1-c1ccccc1 | inconclusive: -48.1%
22 | C/C(=N\NC(=S)Nc1cc(S(=O)(=O)N2CCOCC2)ccc1Cl)c1ccccc1F | inconclusive: -49.7%

Row | Compound | activity change (PNC), negative = inhibition
23 | COc1cccc(C(=O)N(Cc2ccc(N(C)C)cc2)C2CCS(=O)(=O)C2)c1 (stereo not drawn) | inactive: -15.3%
24 | CCOC(=O)c1ccc(NC(=O)CC2SC(=NC)N(C)C2=O)cc1 (stereo not drawn) | inconclusive: -53.7%
25 | O=C(c1cccc(C(F)(F)F)c1)N1CCOC12CCN(c1ncc(C(F)(F)F)cc1Cl)CC2 | inconclusive: -32.4%
26 | COc1ccc(CN(CCC(c2ccccc2)c2ccc(OC(C)C)cc2)C(=O)CCl)cc1OC (stereo not drawn) | inconclusive: -51.5%
27 | c1coc(-c2ncc[nH]2)c1 | active: -97.2%
28 | Cn1c(=O)[nH]c(=O)c2c1nc(CN(Cc1ccccc1)Cc1ccccc1)n2CCN1CCOCC1 | inconclusive: -41%
29 | Cc1ccc(N=Cc2cc3c(cc2O)OC(N)=C(C#N)C3c2ccccc2)cc1 (stereo not drawn) | inconclusive: -37.1%
30 | CCC(=O)Nc1ccc(-c2nn3c(C)nnc3s2)cc1C | inconclusive: -67.4%
31 | O=[N+]([O-])c1cccc(-c2ccc(C(=S)N3CCN(c4ccc(F)cc4)CC3)o2)c1 | inconclusive: -46.8%
32 | C=CCc1cccc(/C=N/NC(=O)C(C)Nc2ccc(C)cc2)c1O (stereo not drawn) | inactive: 68.4%
33 | CN(C)S(=O)(=O)c1cccc(NC(=O)c2ccncc2)c1 | inconclusive: -54.9%
34 | O=S(=O)(N/N=C\c1cn(-c2ccccc2)nc1-c1ccccc1)c1ccccc1 | inconclusive: -37.4%
35 | CCOC(=O)c1c(C)oc2c1c(C(c1cccnc1)N1CCN(C)CC1)c(O)c1ccccc12 (stereo not drawn) | inactive: -12.7%
36 | Cc1cc(C)c(NC2=CC(=O)CC(C)(C)C2)c(C#N)c1 | inconclusive: -34.1%
37 | CC(C)OC(=O)C1C(=O)CC(C)(O)C(C(=O)OC(C)C)C1c1cccc(O)c1 (stereo not drawn) | inactive: 26.8%
38 | Cc1ccc(-n2c(-c3nn(C)c(C)c3Cl)n[nH]c2=S)cc1 | inconclusive: -58.2%
39 | COc1cc(-c2nnc(CSc3nnc4nc(C)cc(C)n34)o2)cc(OC)c1OC | inconclusive: -68.9%
40 | CC1(C)CC(=O)C(=Cc2cn(CCC#N)nc2-c2ccc(F)cc2)C(=O)C1 | inconclusive: -50.4%
41 | Cc1cc(C)nc(SCc2nnc(SCC(=O)Nc3nccs3)n2Cc2ccco2)n1 | inconclusive: -35.3%
42 | CN1CCC(=NNC(=O)C(=O)Nc2ccccc2)CC1 | inactive: 10.6%
43 | CCCC(=O)NC(c1cccs1)c1cc([N+](=O)[O-])c2cccnc2c1O (stereo not drawn) | inactive: -27.3%
44 | N#CC1=C(N)Oc2n[nH]c(-c3cccs3)c2C1c1ccco1 (stereo not drawn) | inactive: 18.4%

Row | Compound | activity change (PNC), negative = inhibition
45 | O=C(NC1CCCCC1)N1CCC(c2nc3ccccc3[nH]2)CC1 | inconclusive: -36.1%
46 | COc1ccc(NC(=O)C(C)N2c3cccc4cccc(c34)S2(=O)=O)cc1OC (stereo not drawn) | inconclusive: -59.2%
47 | Cc1cc2cc3c(cc2nc1SCC(=O)Nc1ccccc1)CCC3 | inconclusive: -62.1%
48 | Cc1cnc(C(=O)OCC(=O)c2csc(N3CCCCC3)n2)cn1 | inactive: -2.24%
49 | CC(=O)CSc1nnc(Cc2ccc([N+](=O)[O-])cc2)o1 | inconclusive: -40.7%
50 | CCOC(=O)C(C(C)=O)=C1SC2CS(=O)(=O)CC2S1 (stereo not drawn) | active: -127%
51 | COc1cccc(-c2noc(C3CCCN(C(=O)Cc4ccccc4)C3)n2)c1 (stereo not drawn) | inactive: -16.4%
52 | COc1ccc(C2(C(=O)NC(C)C)CCCC2)cc1OC | inconclusive: -39.5%
53 | O=C(COC(=O)c1ccccc1)Nc1cccc(S(=O)(=O)NC2=NCCCCC2)c1 | inactive: -23%
54 | N#C/C(=C/c1cccs1)c1nc2ccccc2[nH]1 | inconclusive: -31.2%
55 | COc1ccccc1-n1c(=O)oc2ccc(Cl)cc2c1=O | inconclusive: -56.4%
56 | Clc1ccc(-c2cn3c(n2)-c2ccccc2C3)cc1Cl | inconclusive: -35.9%
57 | CSc1nc2ccccc2n1C(=O)NC1CCCCC1 | inconclusive: -39.8%
58 | CC(C)CN1C(=O)CC(Sc2ccccc2C(=O)O)C1=O (stereo not drawn) | inconclusive: -39.6%
59 | CS(=O)(=O)Nc1ccc2c(c1)nc1n2CCOC1 | inconclusive: -46.8%
60 | Cc1ccc(-c2nn(-c3ccccc3)cc2/C=N/NC(=O)CSc2nnc(C)n2-c2ccccc2)cc1 | inactive: 49%
61 | CCN(CC)c1ccc(NC(=O)c2cnc3ccccn3c2=O)c(C)c1 | inconclusive: -73.7%
62 | O=C(c1ccc2c(c1)[nH]c(=S)n1c3ccccc3nc21)N1CCN(c2ncccn2)CC1 | inactive: -8.3%
63 | N#Cc1c(N)nc(SCC(=O)NCCc2ccccc2)c(C#N)c1-c1cccs1 | inconclusive: -32.6%
64 | CSc1nc(SCC(=O)NC(c2ccccc2)c2ccccc2)c2c3c(sc2n1)CN(C)CC3 | inconclusive: -33.4%
65 | O=C(NC1CCS(=O)(=O)C1)/C(=C/c1ccc(Cl)cc1)NC(=O)c1ccccc1 (stereo not drawn) | inconclusive: -58.4%
66 | CCOc1ccc(-c2onc(C(F)(F)F)c2-c2cscn2)c(O)c1 | inconclusive: -42.4%

Random excerpt: four entries already listed, in no set order.
Row | Compound | activity change (PNC), negative = inhibition
30 | CCC(=O)Nc1ccc(-c2nn3c(C)nnc3s2)cc1C | inconclusive: -67.4%
42 | CN1CCC(=NNC(=O)C(=O)Nc2ccccc2)CC1 | inactive: 10.6%
53 | O=C(COC(=O)c1ccccc1)Nc1cccc(S(=O)(=O)NC2=NCCCCC2)c1 | inactive: -23%
4 | Cc1ccc(C(=O)c2cc([N+](=O)[O-])ccc2N2CCCCC2)c(C)c1 | inconclusive: -73.8%

Reformatted as tab-separated lines: part of the list above
Row	Compound	activity change (PNC), negative = inhibition
8	Cc1cc(C)cc(NC(=O)Cn2cc3c(n2)CCCCC3)c1	inactive: -17.2%
11	COc1cccc(OC)c1C(=O)Nc1ccccc1N1CCCC1	inconclusive: -35%
62	O=C(c1ccc2c(c1)[nH]c(=S)n1c3ccccc3nc21)N1CCN(c2ncccn2)CC1	inactive: -8.3%

Next part.

Row | Compound | activity change (PNC), negative = inhibition
67 | Cc1ccc(-c2c(C(=O)N3CCOCC3)oc(=O)c3ccccc23)cc1 | inconclusive: -33.7%
68 | COCc1cc(C)nc2sc(C(=O)N3CCCCC3)c(N)c12 | inconclusive: -78.9%
69 | COC(=O)[C@H](Cc1ccccc1)NC(=O)Nc1ccc(C)cc1 | inactive: 0.395%
70 | O=C(NCc1ccco1)Nc1ccc(Br)cc1Cl | inconclusive: -34.1%
71 | Cn1cccc1Cc1nnc(SCC(=O)NCc2ccco2)n1CCc1ccccc1 | inconclusive: -31%
72 | CCOc1cc(C2NN=C(c3ccccc3)S2)ccc1OCc1ccc(F)cc1 (stereo not drawn) | inactive: 51.7%
73 | C=CCNC(=O)c1cc2nc(C3CC3)cc(C(F)F)n2n1 | inconclusive: -36.9%
74 | CCN(CC)c1ncnc2sc3c(c12)CCC3 | inconclusive: -41.4%
75 | CCS(=O)(=O)N1CCC(C(=O)NCCCN2CCCCCC2)CC1 | inconclusive: -54.3%
76 | N/C(Cc1ccc(Cl)cc1Cl)=N\OC(=O)Cc1cccs1 | active: -124%
77 | Cc1onc(-c2ccccc2Cl)c1C(=O)Nc1nnc(-c2ccc(Cl)cc2Cl)s1 | inconclusive: -37.5%
78 | CC(=O)Oc1cccc(N2C(=O)CC(Nc3ccc(N4CCOCC4)cc3)C2=O)c1 (stereo not drawn) | inconclusive: -38.5%
79 | CCN(CC)S(=O)(=O)c1cccc(-c2nnc(SC(C)C(N)=O)n2CCc2ccccc2)c1 (stereo not drawn) | inconclusive: -38.4%
80 | COc1ccc(C(=O)CSc2n[nH]c(-c3ccco3)n2)cc1 | active: -107%
81 | O=C(NCCN1CCOCC1)c1cc2sccc2n1Cc1ccc(Cl)cc1 | inconclusive: -69.7%
82 | Cc1cc(Nc2ccccc2)nc2cc(O)ccc12 | inconclusive: -60.4%
83 | N#CCCn1cc(C=C(C#N)C#N)c(-c2ccc(-c3ccccc3)cc2)n1 | inactive: 10.4%
84 | COC(=O)C1Sc2[nH]c(=O)sc2C2c3ccccc3OC(=O)C12 (stereo not drawn) | inactive: -23.7%
85 | O=C(Nc1ccccc1)Nc1ccc(Br)cc1F | inconclusive: -53%
86 | Cc1ccc(S(=O)(=O)Nc2ccccc2C(=O)OC(C)C(=O)Nc2ccc3ccccc3c2)cc1[N+](=O)[O-] (stereo not drawn) | inconclusive: -43%
87 | O=C(c1ccccc1Oc1ccccc1)N1CCN(c2ccccc2)CC1 | inactive: 20.1%
88 | Cc1ccccc1-n1c(=O)/c(=C\c2ccco2)s/c1=C(/C#N)C(=O)Nc1ccccc1 | inactive: 29.5%
